This is an account of results in US11579152B2, “Engineered hERG channel proteins, vesicles and methods of identifying small molecule pharmacological agents” (priority 2016, dated 2023).

Protein sequences, listed by entry. Tags and fused reporters are not part of them. Chains listed by the source or under a name are the forms on record and can include a tag or linker.
UniProt Q12809, with tags, fused parts or gaps DEL141-380/DEL871-1005: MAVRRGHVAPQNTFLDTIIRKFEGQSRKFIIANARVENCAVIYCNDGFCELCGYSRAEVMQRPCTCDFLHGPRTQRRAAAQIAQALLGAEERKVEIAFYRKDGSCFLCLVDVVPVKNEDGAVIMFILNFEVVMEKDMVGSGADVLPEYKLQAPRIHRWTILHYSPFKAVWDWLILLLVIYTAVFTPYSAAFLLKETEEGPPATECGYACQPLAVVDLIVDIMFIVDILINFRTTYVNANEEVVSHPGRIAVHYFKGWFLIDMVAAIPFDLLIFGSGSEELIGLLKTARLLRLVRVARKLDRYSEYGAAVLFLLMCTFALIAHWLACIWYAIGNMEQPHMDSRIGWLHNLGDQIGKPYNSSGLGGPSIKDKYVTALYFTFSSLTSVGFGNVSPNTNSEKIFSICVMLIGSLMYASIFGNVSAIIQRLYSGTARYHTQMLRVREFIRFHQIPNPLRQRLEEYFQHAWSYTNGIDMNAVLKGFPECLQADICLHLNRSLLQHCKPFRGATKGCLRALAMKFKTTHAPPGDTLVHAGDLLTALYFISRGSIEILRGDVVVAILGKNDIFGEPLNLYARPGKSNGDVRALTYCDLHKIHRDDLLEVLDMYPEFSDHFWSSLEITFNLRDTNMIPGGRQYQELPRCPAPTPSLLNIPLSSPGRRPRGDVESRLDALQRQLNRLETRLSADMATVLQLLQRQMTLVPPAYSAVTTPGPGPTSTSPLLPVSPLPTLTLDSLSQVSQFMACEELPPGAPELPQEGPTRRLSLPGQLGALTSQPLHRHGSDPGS

One assay concerns the target hERG (Homo sapiens, UniProt Q12809). The following applies: read-out: IC50 patch; electrophysiology-determined values reported in the literature; cited from earlier work.
A further assay addresses hERG channel (Homo sapiens, UniProt Q12809, DEL141-380/DEL871-1005). Briefly: biochemical.

For the compound `CCN(CC)CCOc1ccc(C(=C(Cl)c2ccccc2)c2ccccc2)cc1` [Clomiphene], the IC50 at hERG was 180 nM; against hERG channel, 4.58 ± 0.598 µM.

By IC50 is commonly meant the concentration needed to halve the response being measured.
